# Laboratory results as given in publication PMC3157345.
# By UniProt entry, the sequences of proteins in these tests, tags left out. Residues count along the entry.
# UniProt Q9NRC8: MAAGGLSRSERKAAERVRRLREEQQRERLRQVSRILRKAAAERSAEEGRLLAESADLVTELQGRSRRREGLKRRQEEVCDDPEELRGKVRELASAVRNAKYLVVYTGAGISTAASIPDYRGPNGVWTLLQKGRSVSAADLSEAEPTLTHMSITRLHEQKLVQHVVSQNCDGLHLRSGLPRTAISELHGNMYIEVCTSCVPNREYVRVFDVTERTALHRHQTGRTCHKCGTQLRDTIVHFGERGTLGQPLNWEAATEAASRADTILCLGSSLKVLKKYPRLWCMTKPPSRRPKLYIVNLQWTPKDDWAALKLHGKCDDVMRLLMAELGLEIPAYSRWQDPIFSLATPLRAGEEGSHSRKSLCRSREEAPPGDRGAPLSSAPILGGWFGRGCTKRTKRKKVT
# UniProt Q96EB6: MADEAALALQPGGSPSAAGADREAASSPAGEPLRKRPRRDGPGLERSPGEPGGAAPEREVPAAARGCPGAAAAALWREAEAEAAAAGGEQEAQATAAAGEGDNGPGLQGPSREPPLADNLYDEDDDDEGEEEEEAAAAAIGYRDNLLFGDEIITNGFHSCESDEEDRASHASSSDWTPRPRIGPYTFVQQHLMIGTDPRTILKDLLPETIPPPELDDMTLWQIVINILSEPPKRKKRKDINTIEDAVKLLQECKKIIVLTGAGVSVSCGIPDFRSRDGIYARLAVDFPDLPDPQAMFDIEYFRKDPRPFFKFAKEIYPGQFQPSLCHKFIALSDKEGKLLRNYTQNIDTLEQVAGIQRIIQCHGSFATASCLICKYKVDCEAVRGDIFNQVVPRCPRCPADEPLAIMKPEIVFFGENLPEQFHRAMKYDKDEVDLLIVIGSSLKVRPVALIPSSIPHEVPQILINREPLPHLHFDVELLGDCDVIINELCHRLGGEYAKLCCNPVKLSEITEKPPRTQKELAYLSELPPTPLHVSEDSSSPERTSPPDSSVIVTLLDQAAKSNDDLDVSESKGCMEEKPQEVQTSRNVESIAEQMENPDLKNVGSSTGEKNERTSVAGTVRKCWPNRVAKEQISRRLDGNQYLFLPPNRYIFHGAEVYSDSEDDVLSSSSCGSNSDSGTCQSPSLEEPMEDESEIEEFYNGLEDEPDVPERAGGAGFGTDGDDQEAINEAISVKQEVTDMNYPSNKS
# UniProt Q8N6T7: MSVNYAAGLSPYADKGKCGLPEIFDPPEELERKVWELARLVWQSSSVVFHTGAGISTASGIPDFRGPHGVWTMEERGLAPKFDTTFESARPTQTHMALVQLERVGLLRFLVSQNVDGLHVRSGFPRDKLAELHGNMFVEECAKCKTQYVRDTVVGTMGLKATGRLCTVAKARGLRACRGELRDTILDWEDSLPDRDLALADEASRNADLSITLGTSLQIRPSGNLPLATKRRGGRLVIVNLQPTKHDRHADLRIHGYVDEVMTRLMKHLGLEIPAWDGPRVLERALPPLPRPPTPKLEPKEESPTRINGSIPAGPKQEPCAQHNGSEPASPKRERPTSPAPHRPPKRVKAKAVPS
# UniProt Q9NXA8, residues 37-310: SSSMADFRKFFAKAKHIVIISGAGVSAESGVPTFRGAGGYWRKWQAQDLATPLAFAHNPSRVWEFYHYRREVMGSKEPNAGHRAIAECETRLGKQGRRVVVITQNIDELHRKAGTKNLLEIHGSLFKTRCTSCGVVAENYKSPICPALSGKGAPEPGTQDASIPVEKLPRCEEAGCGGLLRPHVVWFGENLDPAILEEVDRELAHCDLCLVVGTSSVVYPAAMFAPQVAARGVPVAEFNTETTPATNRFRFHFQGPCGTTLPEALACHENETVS
# UniProt P31040, residues 43-664: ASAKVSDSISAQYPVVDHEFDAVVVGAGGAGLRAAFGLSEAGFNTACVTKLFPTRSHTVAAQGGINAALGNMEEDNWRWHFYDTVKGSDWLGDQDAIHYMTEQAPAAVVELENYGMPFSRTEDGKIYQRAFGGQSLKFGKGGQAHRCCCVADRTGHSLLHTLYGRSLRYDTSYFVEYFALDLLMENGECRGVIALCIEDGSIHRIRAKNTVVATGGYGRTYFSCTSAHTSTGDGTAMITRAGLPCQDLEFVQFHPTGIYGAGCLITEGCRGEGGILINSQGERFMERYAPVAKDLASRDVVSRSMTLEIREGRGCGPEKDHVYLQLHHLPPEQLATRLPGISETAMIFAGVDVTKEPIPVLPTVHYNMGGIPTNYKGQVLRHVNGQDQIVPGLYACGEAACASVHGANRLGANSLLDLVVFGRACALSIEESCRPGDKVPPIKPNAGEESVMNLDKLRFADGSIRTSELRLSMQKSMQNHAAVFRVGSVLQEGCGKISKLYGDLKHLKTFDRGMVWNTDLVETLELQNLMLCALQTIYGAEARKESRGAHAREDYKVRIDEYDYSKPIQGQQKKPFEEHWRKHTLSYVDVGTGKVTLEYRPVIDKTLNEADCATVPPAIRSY
# Results are given in words; binding and its absence hold for the method and conditions named. In cells and extracts the contact can be indirect. For part of these data: Tags and fused reporters may be left off the sequences shown.
# T1: SIRT4-FLAG (UniProt Q9Y6E7)
# T1 sequence: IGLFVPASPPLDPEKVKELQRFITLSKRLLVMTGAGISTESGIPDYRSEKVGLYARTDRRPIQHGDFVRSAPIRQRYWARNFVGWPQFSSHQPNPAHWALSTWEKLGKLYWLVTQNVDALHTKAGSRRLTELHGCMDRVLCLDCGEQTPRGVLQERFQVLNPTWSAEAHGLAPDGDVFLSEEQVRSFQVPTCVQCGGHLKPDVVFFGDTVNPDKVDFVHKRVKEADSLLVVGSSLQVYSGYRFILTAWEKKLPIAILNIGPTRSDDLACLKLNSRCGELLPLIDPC
# T2: SIRT2-FLAG (UniProt Q8IXJ6)
# T2 sequence: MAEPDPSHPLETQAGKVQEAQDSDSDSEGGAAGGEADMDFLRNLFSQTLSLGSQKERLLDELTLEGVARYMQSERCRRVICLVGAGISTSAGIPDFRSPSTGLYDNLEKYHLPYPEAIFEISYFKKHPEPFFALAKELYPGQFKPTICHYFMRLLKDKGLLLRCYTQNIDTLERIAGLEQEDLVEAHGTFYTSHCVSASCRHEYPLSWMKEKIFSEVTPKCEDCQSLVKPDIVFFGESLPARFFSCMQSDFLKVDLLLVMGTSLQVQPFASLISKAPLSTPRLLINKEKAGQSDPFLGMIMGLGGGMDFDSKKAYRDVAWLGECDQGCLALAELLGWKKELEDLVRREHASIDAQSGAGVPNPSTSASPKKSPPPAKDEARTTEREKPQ
# Key:
# Test in all cases: co-IP; FLAG-IPs from HEK293T cells transiently expressing FLAG-tagged sirtuins (SIRT1-7 or SIRT3-5), immunoblotted for SDHA, OSCP, FLAG or with antibody cocktails against complex II and OXPHOS subunits
# [1] = molecular target: T1, SIRT4-FLAG
# [2] = molecular target: SIRT7-FLAG (UniProt Q9NRC8)
# [3] = molecular target: SIRT1-FLAG (UniProt Q96EB6)
# [4] = molecular target: T2, SIRT2-FLAG
# [5] = molecular target: SIRT6-FLAG (UniProt Q8N6T7)
# [6] = molecular target: SIRT5-FLAG (UniProt Q9NXA8)
binding [1],binding [2],binding [3],binding [4],binding [5],binding [6],Molecule
no binding,no binding,no binding,no binding,no binding,no binding,SDHA subunit of complex II (succinate dehydrogenase) (from UniProt P31040 43-664)
no binding,no binding,no binding,no binding,no binding,no binding,"ATP5O/OSCP (protein, UniProt P48047 24-213) FAKLVRPPVQVYGIEGRYATALYSAASKQNKLEQVEKELLRVAQILKEPKVAASVLNPYVKRSIKVKSLNDITAKERFSPLTTNLINLLAENGRLSNTQGVVSAFSTMMSVHRGEVPCTVTSASPLEEATLSELKTVLKSFLSQGQVLKLEAKTDPSILGGMIVRIGEKYVDMSVKTKIQKLGRAMREIV"
